The list shows a part of the results. Further columns of the screen follow, without active or inactive calls. The list favours compounds with an active or inconclusive main result. The note in brackets gives the kind of curve behind each potency; many fits are weak.
Test: qHTS Assay for Lipid Storage Modulators in Drosophila S3 Cells;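 for cell number change: cells counted by Cell Tracker Red CMTPX staining in the red channel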
Details: BODIPY lipid droplet fluorescence, 18-24 h; for cell number change: measured here: cell count max response, cells fed with added oleic acid
Outline: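 Drosophila S3 cells got compounds at several concentrations plus oleic acid (400 uM solution). Laser-scanning cytometry with 488 nm excitation read lipid droplets at 500-530 nm and cells at 575-640 nm. Percent activity was relative to 20 uM Triacsin C.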

[1] = measured here: lipid fluorescence (Fed channel) AC50, cells fed with added oleic acid
[2] = measured here: cell number channel AC50, cells fed with added oleic acid

SMILES | cell number change [%] | AC50 [1] | AC50 [2]
O=C(NNC(=O)c1ccccc1-n1cccc1)c1ccc(Cl)c(Cl)c1 | -6.65 | 0.0651 µM [rising, full curve, poor fit] | –
CC[C@H](C)C(C(=O)N1CCN(C(=O)OC(C)(C)C)CC1)n1cc(C(CO)NC(=O)OC(C)(C)C)nn1 (some centres undefined) | -7.35 | 0.0461 µM [falling, full curve, poor fit] | –
NC1=NC(=O)C(Cc2ccc(Br)cc2)S1 (centres undefined) | 1.13 | 29.1 µM [rising, single point] | –
O=c1cc(-c2ccccc2)nc(SCc2ccc(Cl)cc2)[nH]1 | 25.4 | 29.1 µM [rising, single point] | –
Cc1cc(-c2ccccc2)nc(N(C)NC(=O)c2ccc(Cl)cc2)c1S(C)(=O)=O | -2.96 | 0.0231 µM [rising, full curve, poor fit] | –
Cc1ccc(CNC(=O)c2ccc(Cn3nc(C)cc3C)o2)cc1 | – | – | 0.731 µM [falling, single point]
C#CCn1cc(/C=N/Nc2nc3ccccc3[nH]2)c2ccccc21 | -28.4 | – | –
COc1ccc(CNC(=O)COC(=O)c2ccc3c(c2)OCCO3)cc1 | 8.1 | 0.116 µM [rising, full curve, poor fit] | –
O=C(Nc1nccs1)c1cccc2ccccc12 | 5.26 | 1.3 µM [falling, full curve] | –
O=C(Nc1cccc(Cl)c1N1CCCC1)c1cc2ccccc2o1 | -23 | 3.66 µM [rising, full curve, poor fit] | –
Cc1nn(-c2ccc([N+](=O)[O-])cc2)c2c1C(c1cccc(Br)c1)N1C(=N2)C(=O)Nc2ccccc21 (centres undefined) | 16.7 | – | 1.16 µM [falling, full curve]
CCOc1cc(N2CCOCC2)c(OCC)cc1NC(=O)c1cc(S(=O)(=O)N2CCOCC2)ccc1Cl | 3 | – | –
Cc1ccc(S(=O)(=O)N2CCC(N3CCC(C)CC3)CC2)cc1 | 14.1 | 14.6 µM [rising, partial curve] | –
CC(=O)OC(C)=O | -7.63 | 0.731 µM [rising, single point] | –
O=S1(=O)CCOC[C@H](CC2CCCCC2)N1Cc1ccccc1Br | 34.4 | 29.1 µM [rising, single point] | 0.0058 µM [rising, full curve, poor fit]
O=[N+]([O-])c1cc(/C=N/O)ccc1SCc1ccccc1Cl | -43.3 | 0.0411 µM [falling, full curve, poor fit] | 13 µM [falling, partial curve, poor fit]
O=C(Nc1cc(C(F)(F)F)ccc1N1CCOCC1)c1cn2ccccc2n1 | – | 0.731 µM [rising, partial curve, poor fit] | –
Cc1ccc(S(=O)(=O)N(C)C)cc1NC(=S)Nc1ccc2cn[nH]c2c1 | – | 20.6 µM [rising, single point] | –
CC(C)CCNC(=O)NC(=O)COC(=O)/C=C/c1cc(Br)ccc1F | 1.18 | 6.51 µM [falling, single point] | 6.51 µM [falling, single point]
O=C(NCCCN1CCOCC1)c1nn2c(C(F)(F)F)cc(-c3ccco3)nc2c1Cl | -5.56 | – | –
CCOc1ccc2c(c1)C(C)=CC(C)(C)N2S(=O)(=O)c1ccc(F)cc1 | -22.3 | 29.1 µM [falling, single point] | –

SMILES | cell number change [%] | AC50 [1] | AC50 [2]
CCC(CC)C(=O)NC12CC3CC(CC(C3)C1)C2 | -7.91 | 0.00461 µM [falling, full curve, poor fit] | –
COc1cccc(C(=O)Nc2c3c(nc4c2CCC4)CCCC3)c1 | 33.5 | 18.4 µM [rising, single point] | 29.1 µM [rising, single point]
CCCc1nc(C)cc(N2CCN(c3ccccc3)CC2)n1 | -5.63 | – | –
O=C(CCCN1C(=O)/C(=C/c2cccs2)SC1=S)Nc1cccnc1 | 13.4 | 2.91 µM [rising, partial curve, poor fit] | –
O=C(Cc1ccc(-n2c(=O)[nH]c3ccccc3c2=O)cc1)N1CCN(c2cccc(Cl)c2)CC1 | 15.6 | – | –
CCOc1ccccc1Oc1cn[nH]c1-c1ccc(OCC(=O)NN)cc1O | 1.62 | 1.84 µM [rising, partial curve] | –
O=C(CN1CCC(N2CCCCC2)CC1)N1CCCc2ccccc21 | – | 0.731 µM [falling, partial curve, poor fit] | –
COc1cc2cncc(Cc3ccc(Cl)cc3)c2cc1OC | -43.6 | 0.13 µM [falling, full curve, poor fit] | 29.1 µM [falling, partial curve, poor fit]
CCCCc1c(O)nc(SCC(=O)O)[nH]c1=O | 18.1 | 25.9 µM [rising, single point] | –
Cc1nnc(NC(=O)c2ccc(S(=O)(=O)N(C)c3ccccc3)cc2)s1 | 1.13 | 18.4 µM [rising, single point] | –
CCOC(=O)c1cc(NC(=O)COc2ccc([N+](=O)[O-])cc2)cc(C(=O)OCC)c1 | 18.2 | 2.06 µM [rising, partial curve] | 2.06 µM [falling, partial curve]
CCN(C=NC1=NN(c2cccc(C(F)(F)F)c2)CC1)CC | 12.5 | 1.16 µM [falling, partial curve] | –
COc1cc(C2C(C(=O)OC(C)C)=C(C)Nc3[nH]c(=O)[nH]c(=O)c32)ccc1O (centres undefined) | 0.504 | – | –
CCc1noc(C)c1C(=O)OCC(=O)c1ccc(OC)c(OC)c1 | -0.413 | 6.51 µM [falling, full curve] | –
CCC(=O)N(Cc1cc2cc(OC)ccc2[nH]c1=O)c1ccccc1C | 66 | 2.59 µM [rising, full curve, poor fit] | 8.2 µM [rising, partial curve]
Fc1ccc2[nH]c3c(Cl)ncnc3c2c1 | 15.5 | – | –
Cc1c(-c2ccccc2)c(=O)oc2ccc(O)cc12 | 3.58 | 0.517 µM [falling, partial curve, poor fit] | –
CCS(=O)(=O)N1CCC2(CC1)OCCN2S(=O)(=O)c1ccc(OC)cc1 | 86.9 | – | 29.1 µM [rising, single point]
Cc1ccc(SCc2[nH]nc3c2C(c2ccco2)C(C#N)=C(N)O3)cc1 (centres undefined) | -11.8 | 8.2 µM [falling, single point] | –
COC(=O)c1nn(-c2ccccc2)c(-c2ccccc2)c1C(=O)c1ccccc1 | 19.3 | – | –
COc1ccc2oc(C(F)(F)C(F)(F)F)cc(=O)c2c1 | -11.4 | 1.46 µM [falling, full curve] | –

Only AC50 [2] and AC50 [1], for some of the entries so far:
SMILES	AC50 [2]	AC50 [1]
O=c1cc(-c2ccccc2)nc(SCc2ccc(Cl)cc2)[nH]1	–	29.1 µM [rising, single point]
O=C(CCCN1C(=O)/C(=C/c2cccs2)SC1=S)Nc1cccnc1	–	2.91 µM [rising, partial curve, poor fit]

(continued)

SMILES | cell number change [%] | AC50 [1] | AC50 [2]
Cc1ccc(C(=O)Nc2nc(-c3ccccn3)cs2)s1 | – | 0.731 µM [falling, full curve] | –
COC(=O)C(CC(C)C)NC(=O)/C=C/c1ccccc1Cl (centres undefined) | 12.8 | 29.1 µM [rising, single point] | –
Cc1cccc(Cn2ncc(Cl)c(Cl)c2=O)c1 | -44 | – | –
Cc1ccc(NC(=O)c2ccco2)c(NC(=O)COc2ccccc2)c1 | 2.78 | 10.3 µM [rising, partial curve] | –
Cc1cc(C)c(-c2csc(NC(=O)/C=C/c3cccs3)n2)c(C)c1 | – | 14.6 µM [falling, partial curve] | –
CC(C)(C)C1CC=C2C(C#N)=C(N)C(C#N)(C#N)C(c3cccs3)C2C1 (centres undefined) | -11.7 | 23.1 µM [rising, single point] | –
Cn1c(Cn2nnc3ccccc32)nnc1SCC(=O)N1c2ccccc2CCc2ccccc21 | -14.8 | 6.51 µM [rising, single point] | –
N#Cc1cccc(NC(=O)CCn2ccnc2)c1 | 61.9 | 7.31 µM [rising, partial curve, poor fit] | 23.1 µM [rising, single point]
O=C1CN(S(=O)(=O)c2cccc(C(=O)O)c2)c2ccccc2N1 | 5.88 | 6.51 µM [falling, single point] | 6.51 µM [rising, single point]
O=c1[nH]c2ccc(S(=O)(=O)Nc3ccc(-c4nnc5n4CCCCC5)cc3)cc2o1 | 5.62 | – | –
C=CCNC(=O)CN1CCC(O)(c2ccc(F)cc2)CC1 | 7.41 | 2.91 µM [rising, full curve] | –
CN(CC(=O)Nc1cccc2c1CCCC2)S(=O)(=O)c1ccc(Br)cc1 | 0.697 | 32.6 µM [rising, single point] | –
O=C(c1ccco1)N1CCN(/C(=N/S(=O)(=O)c2cccs2)c2ccccc2Cl)CC1 | – | 6.51 µM [falling, single point] | –
Oc1ccc2ccccc2c1N=Nc1nccs1 | -62.5 | 29.1 µM [falling, single point] | 18.4 µM [falling, single point]
Cc1ccc2ncnc(Nc3cccc([N+](=O)[O-])c3)c2c1 | – | 29.1 µM [falling, single point] | –
O=C(NCc1cccs1)c1ccc(N2CCCCC2)nc1 | -30.1 | 13 µM [falling, partial curve, poor fit] | 6.51 µM [falling, full curve, poor fit]
CCOC(=O)c1cnn(-c2ccccc2)c1-n1cccc1C(=O)C(=O)Nc1ccccc1 | -7.35 | 0.13 µM [falling, full curve] | –
COc1cccc(C=Nc2ccccc2C#N)c1O | – | 29.1 µM [rising, single point] | –
Cc1ccc(NC(=O)CCC(=O)NNS(=O)(=O)c2ccccc2)c(C)c1 | -15 | 0.517 µM [falling, full curve, poor fit] | –
